Some of these results come from one statement about several compounds together.
Test system: gastrointestinal transit of a charcoal meal in the rat
Experiment: Charcoal propulsion test (gut motility) in rat
Format: in vivo
Conditions: oral
Procedure: The effect of a drug on gut motility can be studied by means of the charcoal propulsion test.
The method used was based on that described by Takemori et al. (J. Pharmacol. Exp. Ther. 169:39, 1969). Test treatments were administered orally 60 minutes prior to an oral dose of a 10% suspension of charcoal in 2.5% gum Arabic (2 ml/kg). Twenty minutes after dosing with charcoal, the rats were sacrificed and the entire gastrointestinal tract was removed quickly and carefully. The distance that the charcoal meal had traveled toward the caecum was measured and expressed as a percentage of the total gut length.

CNCC(=O)N[C@H](C(=O)O)[C@@H](C)OC(=O)NC(=N)NC(=O)Cc1c(Cl)cccc1Cl [Compound 63, Guanfacine ((R,S)-Threonine-Sarcosine) Carbamate]
dose required to inhibit GIT transit to the same extent as guanfacine, as molar equivalents: ≥ 10 fold

CNCC(=O)N[C@@H](COC(=O)NC(=N)NC(=O)Cc1c(Cl)cccc1Cl)C(=O)O [Compound 61, Guanfacine ((S)-Serine-Sarcosine) Carbamate]
dose required to inhibit GIT transit to the same extent as guanfacine, as molar equivalents: ≥ 10 fold
